Construct, isoform or probe ends are uncertain for at least one entry. For some assays here: A negative result means that nothing was seen under these conditions. For some assays here: The comparison behind a weaker result is the experiment's own reference, which may not be listed here. For some assays here: Protein sequences can lack the tags named with them.
Key:
[1] = molecular target: T1, GST-PIF3-Flag (Arabidopsis thaliana) (UniProt O80536); assay: competition with a labelled probe; settings: EMSA, EMSA: 100 ng protein, native 5% PAGE in ice-cold 0.5x TBE, binding buffer as cited, recombinant protein, protein details: N-term GST, label: none (competitor)
T1 sequence (looked up, limits assumed): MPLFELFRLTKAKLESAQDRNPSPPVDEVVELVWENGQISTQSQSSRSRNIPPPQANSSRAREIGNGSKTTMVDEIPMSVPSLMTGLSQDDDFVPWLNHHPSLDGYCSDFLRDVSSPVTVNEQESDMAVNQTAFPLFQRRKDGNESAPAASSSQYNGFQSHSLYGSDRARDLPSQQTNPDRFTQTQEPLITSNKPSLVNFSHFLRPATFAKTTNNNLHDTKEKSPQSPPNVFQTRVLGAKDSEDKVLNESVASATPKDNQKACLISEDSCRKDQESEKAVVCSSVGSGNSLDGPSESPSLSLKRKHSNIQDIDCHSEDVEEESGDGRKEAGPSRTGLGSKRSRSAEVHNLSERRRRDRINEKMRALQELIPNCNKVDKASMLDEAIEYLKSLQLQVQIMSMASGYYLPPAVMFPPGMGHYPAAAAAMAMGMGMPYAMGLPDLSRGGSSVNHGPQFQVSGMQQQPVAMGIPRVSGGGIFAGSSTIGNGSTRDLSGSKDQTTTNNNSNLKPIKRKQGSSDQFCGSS

GST = assay: EMSA; settings: EMSA: 100 ng protein, native 5% PAGE in ice-cold 0.5x TBE, binding buffer as cited; recombinant protein

Sequence	binding result ([1]; did not compete like WT)	also measured
AGGCCATAGCCATGGGCCTTCATGGGGTGGTTGGCC (double strand) [IBH1 mut]	binds more weakly	–
TGAGGCCGCCCATGGGGACACGACTC (double strand) [IAA2 mut]	binds more weakly	–
ATAGGAGAAGCCCATGCATGCCCATGCTACGAATGG (double strand) [AT4G30410 (bHLH159) mut]	binds more weakly	–
ACCATTAGCCCACGGGATCTTGGGCC (double strand) [PHYB mut]	binds more weakly	–
TCTTTCCGCTCACGTGGGCCTTTTGT (double strand) [PIL1a WT]	–	binding result (GST): no binding
TCTTTCCGCTCACGGGGGCCTTTTGT (double strand) [PIL1a mut]	binds more weakly	–
GACCCATTAACACGGGGATCCATCACGGGCTGTCAGTTT (double strand) [RGA1 mut1 (both G-boxes)]	–	binding result ([1]; no efficient competition): binds more weakly
ACGCGGCATTCACGGGAAGTGCACGGGAACTTGGCCA (double strand) [PIL1b mut1 (both G-boxes)]	–	binding result ([1]; no efficient competition): binds more weakly
